Measurements as given in the supplement of paper PMC10849652.
This is one part of the list.

By UniProt entry, the sequences of proteins in these tests, tags left out. Where a name states a change or a piece, a line headed by the entry shows the natural chain unless it says otherwise.
UniProt Q9NW81: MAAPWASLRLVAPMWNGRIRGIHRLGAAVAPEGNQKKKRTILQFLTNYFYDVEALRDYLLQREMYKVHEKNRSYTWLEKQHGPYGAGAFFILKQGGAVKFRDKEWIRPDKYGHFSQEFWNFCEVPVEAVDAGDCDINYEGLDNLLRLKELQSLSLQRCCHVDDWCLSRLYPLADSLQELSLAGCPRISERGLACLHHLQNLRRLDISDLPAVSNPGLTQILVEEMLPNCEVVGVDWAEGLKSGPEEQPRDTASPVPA
UniProt Q9Y3R5: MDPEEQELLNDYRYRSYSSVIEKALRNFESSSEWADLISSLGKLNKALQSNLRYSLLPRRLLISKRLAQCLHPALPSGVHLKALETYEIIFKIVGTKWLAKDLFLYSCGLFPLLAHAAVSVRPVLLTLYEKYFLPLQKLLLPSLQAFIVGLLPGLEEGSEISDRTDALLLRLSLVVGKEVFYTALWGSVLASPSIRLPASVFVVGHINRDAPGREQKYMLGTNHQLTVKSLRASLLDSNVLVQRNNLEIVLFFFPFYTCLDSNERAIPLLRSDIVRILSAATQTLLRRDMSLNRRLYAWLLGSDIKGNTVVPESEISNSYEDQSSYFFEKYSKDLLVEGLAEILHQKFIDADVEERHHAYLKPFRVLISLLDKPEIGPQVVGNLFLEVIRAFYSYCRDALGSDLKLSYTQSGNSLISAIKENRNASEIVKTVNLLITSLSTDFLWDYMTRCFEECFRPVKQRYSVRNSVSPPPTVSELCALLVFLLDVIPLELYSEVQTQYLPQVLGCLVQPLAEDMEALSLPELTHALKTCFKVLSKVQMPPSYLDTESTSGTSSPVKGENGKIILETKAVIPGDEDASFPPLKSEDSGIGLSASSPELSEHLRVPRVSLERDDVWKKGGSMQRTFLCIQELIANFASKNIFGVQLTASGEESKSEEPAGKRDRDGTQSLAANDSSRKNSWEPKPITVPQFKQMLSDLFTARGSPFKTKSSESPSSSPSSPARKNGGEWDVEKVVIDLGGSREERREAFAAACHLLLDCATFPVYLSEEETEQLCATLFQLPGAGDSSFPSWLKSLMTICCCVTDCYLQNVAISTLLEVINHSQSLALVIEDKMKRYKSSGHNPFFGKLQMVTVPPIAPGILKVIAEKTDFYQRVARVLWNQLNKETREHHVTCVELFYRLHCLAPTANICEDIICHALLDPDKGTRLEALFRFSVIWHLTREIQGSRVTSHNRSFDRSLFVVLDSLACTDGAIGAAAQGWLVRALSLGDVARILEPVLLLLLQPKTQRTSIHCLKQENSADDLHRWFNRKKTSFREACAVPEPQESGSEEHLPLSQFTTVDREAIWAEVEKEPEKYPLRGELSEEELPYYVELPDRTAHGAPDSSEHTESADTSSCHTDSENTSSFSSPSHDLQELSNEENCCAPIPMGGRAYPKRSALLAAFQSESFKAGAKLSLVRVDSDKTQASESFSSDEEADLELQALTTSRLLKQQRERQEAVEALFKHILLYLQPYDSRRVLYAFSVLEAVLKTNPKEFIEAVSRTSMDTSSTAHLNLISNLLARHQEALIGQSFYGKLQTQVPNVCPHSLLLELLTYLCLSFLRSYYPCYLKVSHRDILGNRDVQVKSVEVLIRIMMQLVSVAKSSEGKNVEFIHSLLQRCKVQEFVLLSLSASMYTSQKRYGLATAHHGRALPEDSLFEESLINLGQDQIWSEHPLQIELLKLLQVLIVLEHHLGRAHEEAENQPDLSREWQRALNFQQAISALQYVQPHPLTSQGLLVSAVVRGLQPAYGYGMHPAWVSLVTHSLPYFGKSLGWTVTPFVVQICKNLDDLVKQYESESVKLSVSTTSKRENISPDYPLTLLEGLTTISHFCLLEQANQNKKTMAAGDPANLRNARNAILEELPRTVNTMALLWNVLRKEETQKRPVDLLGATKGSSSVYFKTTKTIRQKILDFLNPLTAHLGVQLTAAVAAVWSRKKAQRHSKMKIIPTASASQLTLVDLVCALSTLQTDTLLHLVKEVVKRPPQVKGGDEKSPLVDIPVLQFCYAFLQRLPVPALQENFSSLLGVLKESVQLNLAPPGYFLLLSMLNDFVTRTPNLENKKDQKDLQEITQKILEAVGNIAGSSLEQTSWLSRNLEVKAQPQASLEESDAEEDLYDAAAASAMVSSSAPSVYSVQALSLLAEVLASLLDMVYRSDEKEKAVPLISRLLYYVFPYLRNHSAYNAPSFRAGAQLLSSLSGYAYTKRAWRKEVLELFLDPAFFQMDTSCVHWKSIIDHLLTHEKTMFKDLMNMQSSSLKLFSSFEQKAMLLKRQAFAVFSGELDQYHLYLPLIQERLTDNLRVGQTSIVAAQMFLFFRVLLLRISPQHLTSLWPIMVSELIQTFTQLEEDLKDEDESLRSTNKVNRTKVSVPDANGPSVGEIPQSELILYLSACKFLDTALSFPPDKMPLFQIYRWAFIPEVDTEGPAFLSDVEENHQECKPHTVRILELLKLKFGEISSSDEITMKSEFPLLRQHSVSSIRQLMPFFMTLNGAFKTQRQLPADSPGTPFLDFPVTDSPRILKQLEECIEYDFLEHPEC
UniProt Q14689: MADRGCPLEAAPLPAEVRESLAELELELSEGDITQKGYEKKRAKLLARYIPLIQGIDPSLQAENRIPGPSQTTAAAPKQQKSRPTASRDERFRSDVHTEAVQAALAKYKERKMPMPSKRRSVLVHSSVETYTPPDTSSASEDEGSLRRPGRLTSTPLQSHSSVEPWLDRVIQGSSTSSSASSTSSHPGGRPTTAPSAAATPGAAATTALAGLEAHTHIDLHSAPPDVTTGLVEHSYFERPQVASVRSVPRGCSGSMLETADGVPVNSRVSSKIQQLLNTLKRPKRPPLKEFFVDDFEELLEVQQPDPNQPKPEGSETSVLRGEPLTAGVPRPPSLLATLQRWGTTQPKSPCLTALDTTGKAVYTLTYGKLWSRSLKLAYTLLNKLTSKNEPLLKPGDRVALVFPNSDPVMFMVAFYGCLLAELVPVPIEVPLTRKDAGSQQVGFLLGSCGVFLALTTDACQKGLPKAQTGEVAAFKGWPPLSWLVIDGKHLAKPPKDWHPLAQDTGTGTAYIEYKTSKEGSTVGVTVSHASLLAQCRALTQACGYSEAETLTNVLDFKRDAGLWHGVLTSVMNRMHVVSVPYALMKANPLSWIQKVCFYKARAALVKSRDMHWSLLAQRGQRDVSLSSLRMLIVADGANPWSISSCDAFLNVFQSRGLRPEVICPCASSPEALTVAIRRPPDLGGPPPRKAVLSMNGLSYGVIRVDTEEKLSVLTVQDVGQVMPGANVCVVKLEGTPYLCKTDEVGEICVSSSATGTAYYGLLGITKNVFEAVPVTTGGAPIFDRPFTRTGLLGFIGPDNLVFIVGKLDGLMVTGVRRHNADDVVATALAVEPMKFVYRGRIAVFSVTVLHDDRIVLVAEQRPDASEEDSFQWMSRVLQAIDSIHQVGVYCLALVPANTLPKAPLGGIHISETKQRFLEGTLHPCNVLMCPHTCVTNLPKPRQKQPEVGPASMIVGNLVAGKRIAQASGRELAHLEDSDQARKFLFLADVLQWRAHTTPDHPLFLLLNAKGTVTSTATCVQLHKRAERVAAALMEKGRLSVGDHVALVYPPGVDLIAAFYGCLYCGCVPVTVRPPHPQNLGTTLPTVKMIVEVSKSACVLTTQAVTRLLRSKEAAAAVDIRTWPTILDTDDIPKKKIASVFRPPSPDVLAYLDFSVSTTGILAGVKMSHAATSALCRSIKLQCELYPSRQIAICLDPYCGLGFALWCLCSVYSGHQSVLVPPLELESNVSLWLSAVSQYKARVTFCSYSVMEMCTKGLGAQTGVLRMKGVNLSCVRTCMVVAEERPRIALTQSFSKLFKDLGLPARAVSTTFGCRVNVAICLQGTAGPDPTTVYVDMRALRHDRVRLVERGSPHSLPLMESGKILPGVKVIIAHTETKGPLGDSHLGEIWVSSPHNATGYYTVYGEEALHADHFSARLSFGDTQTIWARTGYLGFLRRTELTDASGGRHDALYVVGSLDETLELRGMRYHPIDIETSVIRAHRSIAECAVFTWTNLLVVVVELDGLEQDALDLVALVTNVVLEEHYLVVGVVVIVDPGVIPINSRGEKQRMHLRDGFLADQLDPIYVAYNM
UniProt Q5JSL3: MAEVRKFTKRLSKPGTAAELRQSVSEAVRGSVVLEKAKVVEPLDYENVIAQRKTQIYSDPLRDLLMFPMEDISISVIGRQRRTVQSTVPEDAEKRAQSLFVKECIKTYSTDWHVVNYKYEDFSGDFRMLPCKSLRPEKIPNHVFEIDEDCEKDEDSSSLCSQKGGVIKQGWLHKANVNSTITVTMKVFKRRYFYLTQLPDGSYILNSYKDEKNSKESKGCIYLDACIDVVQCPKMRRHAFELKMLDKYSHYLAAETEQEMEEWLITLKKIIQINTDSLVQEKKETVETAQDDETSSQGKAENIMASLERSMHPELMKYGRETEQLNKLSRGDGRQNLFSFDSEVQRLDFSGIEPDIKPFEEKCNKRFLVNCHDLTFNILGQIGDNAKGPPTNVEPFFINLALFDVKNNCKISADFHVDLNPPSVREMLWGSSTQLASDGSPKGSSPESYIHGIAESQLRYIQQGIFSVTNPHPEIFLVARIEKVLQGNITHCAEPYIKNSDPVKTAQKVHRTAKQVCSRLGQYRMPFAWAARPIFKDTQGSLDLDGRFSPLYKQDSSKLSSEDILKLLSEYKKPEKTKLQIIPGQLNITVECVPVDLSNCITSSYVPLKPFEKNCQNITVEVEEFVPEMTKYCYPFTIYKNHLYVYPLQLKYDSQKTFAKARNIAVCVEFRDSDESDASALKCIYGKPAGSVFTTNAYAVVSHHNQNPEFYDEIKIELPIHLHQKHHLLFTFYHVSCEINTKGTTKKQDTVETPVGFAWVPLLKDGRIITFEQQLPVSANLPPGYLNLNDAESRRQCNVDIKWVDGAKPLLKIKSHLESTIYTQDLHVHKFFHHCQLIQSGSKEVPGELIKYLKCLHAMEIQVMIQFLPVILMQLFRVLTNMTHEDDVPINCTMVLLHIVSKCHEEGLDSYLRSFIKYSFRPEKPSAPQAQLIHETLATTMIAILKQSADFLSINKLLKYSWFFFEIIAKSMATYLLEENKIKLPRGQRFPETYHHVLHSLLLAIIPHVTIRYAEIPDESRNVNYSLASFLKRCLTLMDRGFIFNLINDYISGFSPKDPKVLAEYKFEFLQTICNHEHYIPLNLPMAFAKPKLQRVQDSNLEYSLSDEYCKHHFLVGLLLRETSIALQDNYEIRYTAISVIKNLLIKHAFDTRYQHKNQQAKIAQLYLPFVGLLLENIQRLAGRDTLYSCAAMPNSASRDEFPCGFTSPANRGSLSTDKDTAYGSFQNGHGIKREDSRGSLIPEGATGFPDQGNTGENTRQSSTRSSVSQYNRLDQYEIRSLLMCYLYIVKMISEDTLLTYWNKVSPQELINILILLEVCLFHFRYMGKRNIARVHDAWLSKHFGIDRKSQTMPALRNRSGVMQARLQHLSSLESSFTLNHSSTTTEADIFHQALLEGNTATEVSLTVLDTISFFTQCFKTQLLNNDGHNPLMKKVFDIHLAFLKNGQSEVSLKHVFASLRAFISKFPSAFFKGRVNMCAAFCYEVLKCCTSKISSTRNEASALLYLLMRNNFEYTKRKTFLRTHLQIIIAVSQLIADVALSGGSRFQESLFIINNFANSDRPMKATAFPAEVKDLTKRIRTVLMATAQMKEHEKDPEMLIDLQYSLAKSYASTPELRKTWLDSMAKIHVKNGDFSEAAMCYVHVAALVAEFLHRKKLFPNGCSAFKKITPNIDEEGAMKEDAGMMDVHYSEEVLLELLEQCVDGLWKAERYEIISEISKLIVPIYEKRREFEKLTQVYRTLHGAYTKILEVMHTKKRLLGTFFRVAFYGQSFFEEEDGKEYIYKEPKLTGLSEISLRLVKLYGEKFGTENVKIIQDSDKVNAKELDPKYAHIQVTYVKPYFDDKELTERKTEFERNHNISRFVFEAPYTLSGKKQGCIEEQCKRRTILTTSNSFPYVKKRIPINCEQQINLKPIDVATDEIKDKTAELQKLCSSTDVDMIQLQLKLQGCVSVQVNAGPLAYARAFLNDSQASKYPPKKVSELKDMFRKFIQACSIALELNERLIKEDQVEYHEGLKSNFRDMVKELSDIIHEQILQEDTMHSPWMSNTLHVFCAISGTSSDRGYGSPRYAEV
UniProt P0CG22: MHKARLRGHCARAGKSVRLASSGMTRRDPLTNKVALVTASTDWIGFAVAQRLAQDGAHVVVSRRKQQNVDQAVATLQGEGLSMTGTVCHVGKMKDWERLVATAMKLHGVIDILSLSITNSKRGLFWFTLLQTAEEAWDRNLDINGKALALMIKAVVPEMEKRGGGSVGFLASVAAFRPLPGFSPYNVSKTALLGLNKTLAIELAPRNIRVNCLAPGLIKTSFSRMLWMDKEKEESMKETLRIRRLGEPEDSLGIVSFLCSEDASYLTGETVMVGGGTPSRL

Tests used:
Test in all cases: log2 fold change, soluble protein after heating vs DMSO (PISA); higher = thermal stabilisation; K562 lysate, 10 uM; active = over 0.2 and 3.5 SD of the protein, either way, in both replicates (recomputed)
[1] = compound: CS(=O)(=O)CCNCc1ccc(-c2ccc3ncnc(Nc4ccc(OCc5cccc(F)c5)c(Cl)c4)c3c2)o1 [lapatinib]
How it was run: (§1)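 The values are log-two fold changes in thermal stability compared with solvent controls and come from duplicates. They were obtained by TMTpro 16plex LC-MS/MS, with channel sums equalised, on the supernatant after 21,000xg for 90 min. That supernatant came from crude K562 extract at 1 mg/mL protein treated with 10 μM compound for 30 min, heated for 3 min across 48°C-58°C, pooled and brought to 0.5% NP-40 at 4°C.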

[2] = compound: CS(=O)(=O)N1CCN(Cc2cc3nc(-c4cccc5[nH]ncc45)nc(N4CCOCC4)c3s2)CC1 [pictilisib]
How it was run: as §1

[3] = compound: C[C@H](C1=CC=C(C=C1)C(=O)NC2=C3C=CNC3=NC=C2)N
How it was run: as §1

[4] = compound: C[C@H](Nc1ncnc2nc[nH]c12)c1cc2cccc(Cl)c2c(=O)n1-c1ccccc1 [duvelisib]
How it was run: as §1

[5] = compound: Cc1cc(Nc2cc(CN3CCOCC3)c3nc(C)c(Cc4ccc(Cl)cc4F)n3n2)n[nH]1 [gandotinib]
How it was run: as §1

[6] = compound: Cc1cc(Nc2cc(N3CCN(C)CC3)nc(Sc3ccc(NC(=O)C4CC4)cc3)n2)n[nH]1 [tozasertib]
How it was run: as §1

[7] = compound: Cc1ccc(NC(=O)c2ccc(CN3CC[C@H](N(C)C)C3)c(C(F)(F)F)c2)cc1Nc1nccc(-c2cncnc2)n1 [bafetinib]
How it was run: as §1

[8] = compound: Cc1cccc(CC(=O)N2CCc3c2ccc(-c2cn(C)c4ncnc(N)c24)c3F)n1
How it was run: as §1

[9] = compound: Cc1cn(-c2cc(NC(=O)c3ccc(C)c(Nc4nccc(-c5cccnc5)n4)c3)cc(C(F)(F)F)c2)cn1 [nilotinib]
How it was run: as §1

[10] = compound: Cc1nc(Nc2n[nH]c3c2CN(C(=O)N[C@H](CN(C)C)c2ccccc2)C3(C)C)c2sccc2n1
How it was run: as §1

[11] = compound: Cc1nc(Nc2ncc(C(=O)Nc3c(C)cccc3Cl)s2)cc(N2CCN(CCO)CC2)n1 [dasatinib]
How it was run: as §1

[12] = compound: Cc1ncc(-c2ccnc(Nc3ccc(S(C)(=O)=O)cc3)n2)n1C(C)C
How it was run: as §1

[13] = compound: Cn1cc(-c2ccc3c(c2)CCN3C(=O)Cc2cccc(C(F)(F)F)c2)c2c(N)ncnc21
How it was run: as §1

[14] = compound: Cn1cncc1[C@@](N)(c1ccc(Cl)cc1)c1ccc2c(c1)c(-c1cccc(Cl)c1)cc(=O)n2C [tipifarnib]
How it was run: as §1

[15] = compound: NC(=O)c1cnc(N[C@@H]2CCCC[C@@H]2N)nc1Nc1cccc(-n2nccn2)c1
How it was run: as §1

[16] = compound: NC1(c2ccc(-c3nc4ccn5c(=O)[nH]nc5c4cc3-c3ccccc3)cc2)CCC1
How it was run: as §1

[17] = compound: C[C@@H](Oc1cc(-c2cnn(C3CCNCC3)c2)cnc1N)c1c(Cl)ccc(F)c1Cl [crizotinib]
How it was run: as §1

[18] = compound: Cc1ccc(-n2nc(C(C)(C)C)cc2NC(=O)Nc2ccc(OCCN3CCOCC3)c3ccccc23)cc1 [doramapimod]
How it was run: as §1

[19] = compound: Cn1cc(CNCC2CCN(c3ncc(C(=O)NO)cn3)CC2)c2ccccc21 [quisinostat]
How it was run: as §1

[20] = compound: NC(=O)Nc1cc(-c2cccc(F)c2)sc1C(=O)N[C@H]1CCCNC1
How it was run: as §1

Measured: log2 fold change

DGKA (UniProt P23743)
inactive: [1] -0.014 | [2] 0.092 | [3] 0.045 | [4] 0.125 | [5] -0.143 | [6] 0.021 | [7] -0.211 | [8] -0.054 | [9] 0.041 | [10] 0.031 | [11] 0.272 | [12] -0.03 | [13] 0.206 | [14] -0.072 | [15] 0.085

DGKQ (UniProt P52824)
inactive: [1] -0.069 | [3] 0.059 | [4] 0.097 | [5] -0.031 | [6] 0 | [8] -0.015 | [9] -0.074 | [10] -0.083 | [11] 0.016 | [12] -0.102 | [13] 0.056 | [14] -0.156 | [15] -0.029 | [16] -0.352

DMAC2 isoform 4 (UniProt Q9NW81)
inactive: [1] -0.084 | [2] 0.083 | [17] -0.029 | [3] 0.036 | [5] -0.033 | [6] -0.025 | [18] -0.177 | [7] -0.011 | [8] -0.059 | [9] -0.011 | [10] 0.027 | [12] -0.121 | [19] 0.008 | [14] -0.063 | [20] 0.099 | [15] -0.046 | [16] 0.041

DIAPH1 (UniProt H9KV28)
inactive: [1] 0.003 | [2] 0.087 | [17] -0.047 | [3] -0.039 | [5] 0.199 | [6] 0.049 | [18] 0.099 | [7] -0.171 | [8] 0.158 | [9] -0.027 | [10] -0.122 | [12] 0.053 | [19] -0.093 | [14] -0.051 | [20] -0.001 | [15] 0.05 | [16] 0.111

DHX33 (UniProt Q9H6R0)
inactive: [1] -0.013 | [3] -0.087 | [4] 0.004 | [5] 0.17 | [8] -0.007 | [11] 0.049 | [13] 0.059 | [15] -0.006

DOK3 (UniProt Q7L591)
inactive: [1] -0.024 | [2] 0.042 | [17] 0.01 | [3] -0.115 | [4] 0.02 | [5] 0.293 | [6] -0.035 | [18] -0.003 | [7] -0.044 | [8] 0.305 | [9] -0.015 | [10] 0.016 | [11] -0.046 | [12] 0.18 | [13] 0.057 | [19] -0.008 | [14] -0.004 | [20] -0.004 | [15] -0.014 | [16] 0.022

DNTTIP1 (UniProt Q9H147)
inactive: [1] 0.225 | [3] 0.012 | [4] 0.107 | [5] -0.2 | [6] -0.055 | [8] 0.022 | [11] -0.041 | [13] -0.032 | [15] 0.148 | [16] -0.077

DNPEP (UniProt B9ZVU2)
inactive: [1] -0.038 | [17] 0.042 | [4] -0.048 | [6] 0.015 | [18] -0.071 | [9] 0.07 | [10] 0.005 | [11] -0.009 | [12] -0.001 | [13] 0.038 | [19] 0.087 | [14] 0.014 | [20] 0.044 | [15] -0.004 | [16] -0.05

DOP1B (UniProt Q9Y3R5)
inactive: [1] -0.067 | [17] -0.076 | [3] 0.038 | [5] 0.121 | [18] 0.15 | [8] -0.048 | [19] -0.346 | [20] -0.015 | [15] 0.032

2 neighbouring records already listed, quoted:
DNTTIP1 (UniProt Q9H147)
inactive: [1] 0.225 | [3] 0.012 | [4] 0.107 | [5] -0.2 | [6] -0.055 | [8] 0.022 | [11] -0.041 | [13] -0.032 | [15] 0.148 | [16] -0.077

DNPEP (UniProt B9ZVU2)
inactive: [1] -0.038 | [17] 0.042 | [4] -0.048 | [6] 0.015 | [18] -0.071 | [9] 0.07 | [10] 0.005 | [11] -0.009 | [12] -0.001 | [13] 0.038 | [19] 0.087 | [14] 0.014 | [20] 0.044 | [15] -0.004 | [16] -0.05

Following part:

DIP2A (UniProt Q14689)
inactive: [1] 0.008 | [2] -0.007 | [17] 0.002 | [3] -0.028 | [4] 0.049 | [5] 0.034 | [6] 0.031 | [18] 0.057 | [7] -0.044 | [8] 0.016 | [9] -0.009 | [10] -0.062 | [11] -0.14 | [12] 0.016 | [13] 0.135 | [19] -0.039 | [14] 0.013 | [20] -0.028 | [15] 0.029 | [16] -0.027

DOCK11 (UniProt Q5JSL3)
inactive: [1] -0.006 | [2] 0.009 | [17] -0.043 | [3] -0.051 | [4] -0.003 | [5] -0.045 | [6] 0.025 | [18] 0.045 | [7] -0.019 | [8] 0.043 | [9] -0.024 | [10] 0.015 | [11] -0.036 | [12] -0.01 | [13] 0.006 | [19] -0.057 | [14] -0.002 | [20] 0.055 | [15] 0.02 | [16] 0.021

DHRS4L1 (UniProt P0CG22)
inactive: [1] 0.027 | [2] -0.033 | [17] -0.039 | [3] -0.189 | [4] 0.015 | [5] -0.228 | [6] 0.106 | [18] 0.005 | [7] 0.1 | [8] -0.014 | [11] -0.116 | [13] -0.089 | [19] -0.065 | [20] 0.037 | [15] 0.018 | [16] 0.458

DHODH (UniProt Q02127)
inactive: [1] -0.004 | [2] -0.016 | [17] -0.025 | [3] -0.067 | [4] -0.036 | [5] 0.064 | [6] 0.007 | [18] 0.025 | [7] 0.01 | [8] 0.034 | [9] 0.007 | [10] 0.007 | [11] 0.074 | [12] -0.016 | [13] 0.005 | [19] -0.016 | [14] -0.022 | [20] -0.009 | [15] 0.008 | [16] -0.015

DOCK2 (UniProt Q92608)
inactive: [1] -0.003 | [17] 0.003 | [3] -0.134 | [4] 0.047 | [5] 0.008 | [6] 0.069 | [18] 0.047 | [8] 0.154 | [9] -0.021 | [10] 0.078 | [11] 0.02 | [12] -0.035 | [13] -0.013 | [19] -0.056 | [14] -0.094 | [20] 0.094 | [15] -0.081 | [16] -0.116

DLG1 isoform 3 (UniProt Q12959)
inactive: [2] 0.005 | [7] -0.003

DNMT3B (UniProt Q9UBC3)
inactive: [6] 0.262 | [9] 0.045 | [10] -0.046 | [12] -0.015 | [14] 0.084

DNAH12 (UniProt Q6ZR08)
inactive: [2] -0.06 | [3] -0.057 | [4] -0.247 | [5] 0.04 | [7] -0.361 | [8] 0.344 | [11] 0.369 | [13] -0.184

DNAJA3 isoform 2 (UniProt Q96EY1)
inactive: [2] -0.018 | [4] -0.122 | [6] -0.035 | [7] -0.022 | [11] 0.101 | [13] -0.124 | [16] -0.026

DLX2 (UniProt Q07687)
inactive: [16] -0.092

DNAJB2 (UniProt P25686)
inactive: [2] -0.103 | [17] -0.047 | [3] -0.053 | [4] -0.101 | [5] 0.069 | [6] -0.002 | [18] -0.171 | [7] 0.035 | [8] -0.03 | [9] 0.08 | [10] -0.096 | [11] 0.134 | [12] -0.279 | [13] 0.173 | [19] 0.11 | [14] 0.06 | [20] -0.03 | [16] -0.259
